Results: publication PMC2964333
Results are given in words; binding and its absence hold for the method and conditions named. Binding seen in cells or lysates may run through a third protein. Some results given as binding are weak or reduced against the parent protein; the word gives no strength.

Chains of the proteins cited; added tags and fusions are not shown. Lines headed by an entry give the natural chain unless they say otherwise; changes in a name come on top.
UniProt O08863: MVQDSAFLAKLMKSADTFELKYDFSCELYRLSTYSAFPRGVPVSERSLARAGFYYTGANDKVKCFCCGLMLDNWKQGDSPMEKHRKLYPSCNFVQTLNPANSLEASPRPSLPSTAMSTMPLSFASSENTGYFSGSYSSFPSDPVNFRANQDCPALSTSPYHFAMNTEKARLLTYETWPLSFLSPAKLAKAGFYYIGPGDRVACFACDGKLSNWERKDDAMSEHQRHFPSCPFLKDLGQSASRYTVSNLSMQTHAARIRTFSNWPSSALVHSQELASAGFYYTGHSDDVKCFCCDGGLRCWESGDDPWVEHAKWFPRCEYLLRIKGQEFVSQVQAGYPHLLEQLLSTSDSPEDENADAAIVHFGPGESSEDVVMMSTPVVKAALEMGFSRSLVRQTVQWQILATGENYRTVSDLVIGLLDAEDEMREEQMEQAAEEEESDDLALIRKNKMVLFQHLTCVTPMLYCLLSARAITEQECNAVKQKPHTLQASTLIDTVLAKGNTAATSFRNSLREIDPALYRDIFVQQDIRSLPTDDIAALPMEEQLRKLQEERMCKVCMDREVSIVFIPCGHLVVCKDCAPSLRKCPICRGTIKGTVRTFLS

How the values were obtained:
[1] = target: GST-tagged murine c-IAP2 (mouse) (UniProt O08863); assay: pull-down; GST-tagged c-IAP2 proteins on glutathione Sepharose 4B beads incubated with 35S-labeled in vitro translated TRAF2 for 3 h at 4°C in 120 mM NaCl, 10% glycerol, 1% Triton X-100, 50 mM Tris pH 7.5; washed, eluted, SDS-PAGE; only the target purified
[2] = target: GST-tagged murine c-IAP2^H570A (mouse) (UniProt O08863); assay: as above

binding [1]: binds
binding [2]: binds
B1: TNF Receptor Associated Factor 2 (TRAF2), 35S-labeled, in vitro translated (protein, UniProt P39429 1-501)
chain: MAAASVTSPGSLELLQPGFSKTLLGTRLEAKYLCSACKNILRRPFQAQCGHRYCSFCLTSILSSGPQNCAACVYEGLYEEGISILESSSAFPDNAARREVESLPAVCPNDGCTWKGTLKEYESCHEGLCPFLLTECPACKGLVRLSEKEHHTEQECPKRSLSCQHCRAPCSHVDLEVHYEVCPKFPLTCDGCGKKKIPRETFQDHVRACSKCRVLCRFHTVGCSEMVETENLQDHELQRLREHLALLLSSFLEAQASPGTLNQVGPELLQRCQILEQKIATFENIVCVLNREVERVAVTAEACSRQHRLDQDKIEALSNKVQQLERSIGLKDLAMADLEQKVSELEVSTYDGVFIWKISDFTRKRQEAVAGRTPAIFSPAFYTSRYGYKMCLRVYLNGDGTGRGTHLSLFFVVMKGPNDALLQWPFNQKVTLMLLDHNNREHVIDAFRPDVTSSSFQRPVSDMNIASGCPLFCPVSKMEAKNSYVRDDAIFIKAIVDLTGL
modifications: 35S-labeled
